{"source": "patent US20230039395A1", "about": "“LSD AND […] EQUIVALENCE DETERMINATION” (Universitätsspital Basel, priority 2021, published 2023)", "assay": "Treatment identification (blinding), retrospective guess of treatment", "data": [{"smiles": "CCN(CC)C(=O)[C@@H]1C=C2c3cccc4[nH]cc(c34)C[C@H]2N(C)C1", "note": "[LSD, lysergic acid diethylamide]", "values": [{"measurement": "sessions correctly identified", "setting": "100 μg LSD", "result": 57, "unit": "%"}, {"measurement": "sessions mistaken as 15 mg psilocybin", "setting": "100 μg LSD", "result": 18, "unit": "%"}, {"measurement": "sessions correctly identified", "setting": "200 μg LSD", "result": 61, "unit": "%"}, {"measurement": "sessions mistaken as 100 μg LSD", "setting": "200 μg LSD", "result": 18, "unit": "%"}]}]}
